Test results from article doi:10.1101/2023.04.27.538541.

Protein sequences, listed by entry. Tags and fused reporters are not part of them. Lines headed by an entry give the natural chain unless they say otherwise; changes in a name come on top.
UniProt Q6NZQ4: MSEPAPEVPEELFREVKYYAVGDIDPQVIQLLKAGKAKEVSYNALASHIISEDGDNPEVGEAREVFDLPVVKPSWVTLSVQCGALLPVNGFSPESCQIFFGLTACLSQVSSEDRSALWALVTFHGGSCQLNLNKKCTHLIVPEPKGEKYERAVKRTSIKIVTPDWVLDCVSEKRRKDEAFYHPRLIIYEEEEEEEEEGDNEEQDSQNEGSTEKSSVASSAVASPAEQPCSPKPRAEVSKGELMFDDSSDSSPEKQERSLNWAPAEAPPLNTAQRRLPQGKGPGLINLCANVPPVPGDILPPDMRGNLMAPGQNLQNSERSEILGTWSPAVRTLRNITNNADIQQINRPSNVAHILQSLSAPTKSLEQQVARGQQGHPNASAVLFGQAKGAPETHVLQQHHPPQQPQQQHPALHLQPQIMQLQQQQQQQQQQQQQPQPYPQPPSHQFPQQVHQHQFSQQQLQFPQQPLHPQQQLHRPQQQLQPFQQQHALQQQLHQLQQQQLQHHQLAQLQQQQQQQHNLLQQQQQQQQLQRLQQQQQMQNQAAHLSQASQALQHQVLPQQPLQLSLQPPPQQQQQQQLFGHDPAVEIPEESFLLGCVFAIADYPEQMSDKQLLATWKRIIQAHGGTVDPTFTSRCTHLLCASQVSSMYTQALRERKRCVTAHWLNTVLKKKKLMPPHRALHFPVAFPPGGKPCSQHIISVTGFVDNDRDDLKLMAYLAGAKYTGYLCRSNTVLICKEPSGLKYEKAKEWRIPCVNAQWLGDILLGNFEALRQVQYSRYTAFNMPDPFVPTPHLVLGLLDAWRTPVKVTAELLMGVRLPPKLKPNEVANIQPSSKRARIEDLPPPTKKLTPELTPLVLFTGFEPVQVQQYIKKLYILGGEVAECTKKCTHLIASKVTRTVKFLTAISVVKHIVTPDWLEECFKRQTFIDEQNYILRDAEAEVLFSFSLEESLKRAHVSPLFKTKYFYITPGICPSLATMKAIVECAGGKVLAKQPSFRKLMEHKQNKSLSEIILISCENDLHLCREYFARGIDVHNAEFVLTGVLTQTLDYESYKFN
UniProt A0A140LI88: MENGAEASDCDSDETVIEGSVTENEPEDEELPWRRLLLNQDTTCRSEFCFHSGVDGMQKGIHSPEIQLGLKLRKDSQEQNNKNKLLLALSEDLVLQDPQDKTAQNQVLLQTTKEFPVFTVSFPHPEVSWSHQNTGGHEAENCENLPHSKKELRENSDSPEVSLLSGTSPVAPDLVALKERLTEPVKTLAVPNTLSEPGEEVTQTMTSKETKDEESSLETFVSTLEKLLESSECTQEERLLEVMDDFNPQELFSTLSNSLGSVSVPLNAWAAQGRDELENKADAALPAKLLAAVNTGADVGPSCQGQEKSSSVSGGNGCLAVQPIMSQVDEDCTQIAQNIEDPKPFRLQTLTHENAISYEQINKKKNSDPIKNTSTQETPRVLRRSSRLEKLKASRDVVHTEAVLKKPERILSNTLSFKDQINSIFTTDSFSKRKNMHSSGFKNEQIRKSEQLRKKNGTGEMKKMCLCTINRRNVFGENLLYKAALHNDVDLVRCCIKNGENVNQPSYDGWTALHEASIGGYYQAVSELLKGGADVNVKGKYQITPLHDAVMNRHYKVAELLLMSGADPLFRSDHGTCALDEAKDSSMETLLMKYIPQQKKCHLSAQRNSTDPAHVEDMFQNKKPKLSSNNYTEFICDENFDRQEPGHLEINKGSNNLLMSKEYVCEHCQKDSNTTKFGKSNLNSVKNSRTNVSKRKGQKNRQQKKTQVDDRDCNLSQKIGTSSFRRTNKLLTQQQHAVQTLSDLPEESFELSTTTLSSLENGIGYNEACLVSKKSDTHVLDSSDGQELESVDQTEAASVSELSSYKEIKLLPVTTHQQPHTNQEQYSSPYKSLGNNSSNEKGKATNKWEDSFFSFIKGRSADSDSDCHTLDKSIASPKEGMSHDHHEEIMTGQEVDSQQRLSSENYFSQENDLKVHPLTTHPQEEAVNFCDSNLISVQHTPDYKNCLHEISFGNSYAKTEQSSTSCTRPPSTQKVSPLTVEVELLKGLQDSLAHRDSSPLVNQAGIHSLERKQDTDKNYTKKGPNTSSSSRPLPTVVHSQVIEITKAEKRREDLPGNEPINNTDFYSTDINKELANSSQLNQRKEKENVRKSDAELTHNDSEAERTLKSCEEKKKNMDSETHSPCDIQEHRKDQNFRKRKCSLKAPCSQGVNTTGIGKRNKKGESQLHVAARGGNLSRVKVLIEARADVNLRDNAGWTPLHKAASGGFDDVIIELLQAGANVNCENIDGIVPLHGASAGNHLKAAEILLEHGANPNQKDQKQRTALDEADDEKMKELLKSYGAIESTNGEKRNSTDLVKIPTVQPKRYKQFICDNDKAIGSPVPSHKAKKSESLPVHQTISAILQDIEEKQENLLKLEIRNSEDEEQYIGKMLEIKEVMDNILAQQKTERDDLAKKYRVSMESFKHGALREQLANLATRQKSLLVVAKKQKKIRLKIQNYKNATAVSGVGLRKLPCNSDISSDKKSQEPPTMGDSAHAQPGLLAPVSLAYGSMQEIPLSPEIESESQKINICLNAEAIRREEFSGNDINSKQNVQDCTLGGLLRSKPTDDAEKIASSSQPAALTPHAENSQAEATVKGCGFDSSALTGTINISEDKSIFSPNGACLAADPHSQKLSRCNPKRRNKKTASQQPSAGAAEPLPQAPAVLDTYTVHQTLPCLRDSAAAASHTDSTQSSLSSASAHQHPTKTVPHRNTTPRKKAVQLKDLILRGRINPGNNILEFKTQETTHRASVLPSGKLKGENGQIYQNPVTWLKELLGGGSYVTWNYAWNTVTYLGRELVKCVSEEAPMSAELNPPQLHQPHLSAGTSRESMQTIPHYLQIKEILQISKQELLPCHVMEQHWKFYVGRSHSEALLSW

What was measured:
Experiment in all cases: two-hybrid; Gal4 AD and BD fusions (pGADT7, pGBKT7); mating of Y187 and Y2HGold strains; selection on SD-Trp/Leu/AbA (200 ng/ml Aureobasidin A; moderate stringency) or SD-Trp/Leu/Ade/His/AbA (high stringency)
[1] = target: T1, MEI1 (mouse) (UniProt Q9D4I2)
T1 sequence: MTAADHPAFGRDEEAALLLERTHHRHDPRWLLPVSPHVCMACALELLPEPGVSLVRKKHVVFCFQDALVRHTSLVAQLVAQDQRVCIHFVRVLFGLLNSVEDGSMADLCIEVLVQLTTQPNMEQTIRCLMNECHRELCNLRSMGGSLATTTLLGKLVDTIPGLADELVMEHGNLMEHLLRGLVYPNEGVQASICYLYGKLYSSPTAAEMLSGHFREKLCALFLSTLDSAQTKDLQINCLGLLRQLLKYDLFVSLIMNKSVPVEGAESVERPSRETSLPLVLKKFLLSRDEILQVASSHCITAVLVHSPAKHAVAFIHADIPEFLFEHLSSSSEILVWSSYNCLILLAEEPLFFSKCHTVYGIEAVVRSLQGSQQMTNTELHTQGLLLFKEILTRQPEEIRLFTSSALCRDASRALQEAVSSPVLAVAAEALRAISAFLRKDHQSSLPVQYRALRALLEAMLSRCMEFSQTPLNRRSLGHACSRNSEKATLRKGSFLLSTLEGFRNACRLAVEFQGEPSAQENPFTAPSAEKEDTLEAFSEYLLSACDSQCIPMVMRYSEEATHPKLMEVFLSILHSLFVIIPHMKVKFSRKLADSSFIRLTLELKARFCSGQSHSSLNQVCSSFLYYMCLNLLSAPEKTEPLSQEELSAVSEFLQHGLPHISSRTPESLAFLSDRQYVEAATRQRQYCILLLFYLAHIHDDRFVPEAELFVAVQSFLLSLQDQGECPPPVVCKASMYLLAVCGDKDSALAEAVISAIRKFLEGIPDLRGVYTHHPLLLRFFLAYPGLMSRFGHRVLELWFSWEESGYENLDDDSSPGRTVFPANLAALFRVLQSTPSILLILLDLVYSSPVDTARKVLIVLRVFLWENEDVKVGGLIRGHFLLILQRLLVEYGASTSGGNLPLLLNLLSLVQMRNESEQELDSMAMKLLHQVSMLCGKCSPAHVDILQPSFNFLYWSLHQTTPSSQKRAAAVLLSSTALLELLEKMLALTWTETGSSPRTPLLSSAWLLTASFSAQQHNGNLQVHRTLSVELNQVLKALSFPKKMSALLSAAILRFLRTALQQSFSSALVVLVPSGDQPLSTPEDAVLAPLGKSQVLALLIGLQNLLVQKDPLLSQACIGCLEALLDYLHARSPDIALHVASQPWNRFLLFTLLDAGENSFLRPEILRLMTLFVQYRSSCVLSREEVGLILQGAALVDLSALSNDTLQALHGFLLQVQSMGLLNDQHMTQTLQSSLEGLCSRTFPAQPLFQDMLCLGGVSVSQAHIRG

[2] = target: PTIP (mouse) (UniProt Q6NZQ4)
[3] = target: T2, REC114N (N-terminal part of REC114) (mouse) (UniProt Q9CWH4)
T2 sequence: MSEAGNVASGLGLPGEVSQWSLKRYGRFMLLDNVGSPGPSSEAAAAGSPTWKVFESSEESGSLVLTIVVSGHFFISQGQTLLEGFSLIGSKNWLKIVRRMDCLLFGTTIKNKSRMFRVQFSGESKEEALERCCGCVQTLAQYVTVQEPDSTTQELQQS

[4] = target: T3, ZMYM3 (mouse) (UniProt Q9JLM4)
T3 sequence: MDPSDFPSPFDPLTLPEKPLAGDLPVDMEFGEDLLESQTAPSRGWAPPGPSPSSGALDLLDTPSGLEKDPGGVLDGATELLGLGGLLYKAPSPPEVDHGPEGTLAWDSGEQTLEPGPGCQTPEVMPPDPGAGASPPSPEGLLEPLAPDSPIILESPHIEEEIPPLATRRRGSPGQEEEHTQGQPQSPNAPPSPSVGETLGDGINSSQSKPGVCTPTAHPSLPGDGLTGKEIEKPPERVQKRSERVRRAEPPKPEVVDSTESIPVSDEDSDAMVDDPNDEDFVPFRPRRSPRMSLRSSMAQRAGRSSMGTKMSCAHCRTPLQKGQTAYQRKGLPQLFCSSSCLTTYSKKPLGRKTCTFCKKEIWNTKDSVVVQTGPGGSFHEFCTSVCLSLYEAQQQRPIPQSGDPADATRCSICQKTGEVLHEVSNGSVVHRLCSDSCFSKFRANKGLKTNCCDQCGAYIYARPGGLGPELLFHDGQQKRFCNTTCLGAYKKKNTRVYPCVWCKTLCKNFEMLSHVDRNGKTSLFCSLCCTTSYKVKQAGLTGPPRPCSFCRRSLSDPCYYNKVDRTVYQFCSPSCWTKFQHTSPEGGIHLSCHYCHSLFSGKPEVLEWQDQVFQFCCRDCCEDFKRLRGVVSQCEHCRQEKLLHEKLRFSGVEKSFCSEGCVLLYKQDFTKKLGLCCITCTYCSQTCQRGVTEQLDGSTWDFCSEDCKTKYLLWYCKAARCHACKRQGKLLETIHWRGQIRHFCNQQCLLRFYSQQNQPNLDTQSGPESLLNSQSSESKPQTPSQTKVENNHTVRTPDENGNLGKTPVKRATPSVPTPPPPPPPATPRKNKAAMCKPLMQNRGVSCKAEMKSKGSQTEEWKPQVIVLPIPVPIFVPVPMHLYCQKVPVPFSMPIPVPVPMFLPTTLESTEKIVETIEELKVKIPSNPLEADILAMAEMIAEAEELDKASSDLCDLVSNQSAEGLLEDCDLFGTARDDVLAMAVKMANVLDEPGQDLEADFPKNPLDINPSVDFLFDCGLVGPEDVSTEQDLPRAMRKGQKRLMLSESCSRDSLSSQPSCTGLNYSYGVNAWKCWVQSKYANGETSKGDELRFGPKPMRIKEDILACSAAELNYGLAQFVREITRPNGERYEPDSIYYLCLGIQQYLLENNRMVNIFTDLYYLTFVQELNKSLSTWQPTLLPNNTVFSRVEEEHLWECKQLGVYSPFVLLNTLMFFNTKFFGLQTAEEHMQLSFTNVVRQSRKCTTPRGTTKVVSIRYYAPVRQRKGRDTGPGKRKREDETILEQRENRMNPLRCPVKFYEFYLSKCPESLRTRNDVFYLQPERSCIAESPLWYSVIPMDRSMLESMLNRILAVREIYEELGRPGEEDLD

- binding [1]: binds
- binding [2]: binds
- binding [3]: no binding
- binding [4]: binds
Substance: ANKRD31-ΔC (otherwise full-length ANKRD31 with C-terminal frameshift truncation) (from UniProt A0A140LI88)

These are yes or no findings as the source states them, for the method shown. For some of these results: Binding calls can cover weak binding; strength is not graded here.
